US9850542B2, “Gene signature to predict homologous recombination (HR) deficient cancer” (Board of Regents, The University of Texas System, priority 2013, dated 2017)
At least one compound was matched to its structure with a doubt left.

Columns and labels:
HR repair in U2OS cells = assay: HR repair assay (DR-GFP reporter, I-SceI-induced DSB, flow cytometry of GFP-positive cells); assay type: cell-based, human; conditions: contact inhibition and aphidicolin synchronisation, 16 hr treatment
[1] = tested on: cancer cell lines that did not exhibit the HRD gene signature; assay: Drug combination MTT assay in cancer cell lines without the HRD gene signature; assay type: cell-based, human; conditions: fixed molar ratio, CI algorithm

## O=c1cc(N2CCOCC2)oc2c(-c3ccccc3)cccc12 [LY-294002]
HR repair in U2OS cells
  HR repair efficiency: significantly reduced HR repair efficiency
[1]
  synergy with PARP inhibitor olaparib or rucaparib: synergized
